One substance from paper PMC8876561 can be followed below.

These are yes or no findings as the source states them, for the method shown. Some results given as binding are weak or reduced against the parent protein; the word gives no strength.

The target of the assay is Wild-type Spa47 (Shigella T3SS ATPase) (Shigella flexneri) (UniProt Q6XVW8). Nature of the assay: SEC; Superdex 10/300 size exclusion column in 20 mM Tris, 100 mM NaCl, 5 mM DTT, pH 7.9, 4 °C; monomeric and oligomeric fractions isolated; size of the oligomer not stated; both purified.

Regarding “Wild-type Spa47 (Shigella T3SS ATPase) (from UniProt Q6XVW8 1-430) (enzyme)”, the binding result is given as “binds”.
